Laboratory results from the supplement of paper PMC4604168 (melanoma cell lines).
Some of the results follow. Single values are uncertain, as repeats are few or missing.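 The apoptosis fraction was the count of cleaved-PARP antibody-stained nuclei relative to all DNA-stained nuclei, imaged in 1,536-well plates. Screening doses were set so most cells survived, and baseline and induced cleaved-PARP levels vary greatly across cell lines.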

Tests used:
Assay in all cases: cleaved PARP positive nuclei fraction relative to DMSO control; melanoma cells; higher = more apoptosis
Conditions in all cases: library dose: low library concentration; 72 h
CBRC034 = test system: CBRC034 (line from a melanoma biopsy)
COLO792 = test system: COLO792
COLO800 = test system: COLO800
COLO829 = test system: COLO829
G361 = test system: G361
IPC-298 = test system: IPC-298
IST-MEL1 = test system: IST-MEL1
LB2518-MEL = test system: LB2518-MEL
LOXIMVI = test system: LOXIMVI
MEL-HO = test system: MEL-HO
MZ2-MEL = test system: MZ2-MEL
MeWo = test system: MeWo
RPMI7951 = test system: RPMI7951
RVH-421 = test system: RVH-421
SkMel28 = test system: SkMel28
SkMel2 = test system: SkMel2
SkMel30 = test system: SkMel30
UACC62 = test system: UACC62

Row | SMILES | cleaved PARP positive nuclei fraction (CBRC034) | cleaved PARP positive nuclei fraction (COLO792) | cleaved PARP positive nuclei fraction (COLO800) | cleaved PARP positive nuclei fraction (COLO829) | cleaved PARP positive nuclei fraction (G361) | cleaved PARP positive nuclei fraction (IPC-298) | cleaved PARP positive nuclei fraction (IST-MEL1) | cleaved PARP positive nuclei fraction (LB2518-MEL) | cleaved PARP positive nuclei fraction (LOXIMVI) | cleaved PARP positive nuclei fraction (MEL-HO) | cleaved PARP positive nuclei fraction (MZ2-MEL) | cleaved PARP positive nuclei fraction (MeWo) | cleaved PARP positive nuclei fraction (RPMI7951) | cleaved PARP positive nuclei fraction (RVH-421) | cleaved PARP positive nuclei fraction (SkMel28) | cleaved PARP positive nuclei fraction (SkMel2) | cleaved PARP positive nuclei fraction (SkMel30) | cleaved PARP positive nuclei fraction (UACC62)
1 | Cc1cc(Nc2cc(N3CCN(C)CC3)nc(Sc3ccc(NC(=O)C4CC4)cc3)n2)n[nH]1 [Tozasertib] + C=CCNC1=C2C[C@@H](C)C[C@H](OC)[C@H](O)[C@@H](C)/C=C(\C)[C@H](OC(N)=O)[C@@H](OC)/C=C\C=C(/C)C(=O)NC(=CC1=O)C2=O [Tanespimycin] (first compound 0.006 µM, partner dose 0.002 µM) | 57.9% | 80.7% | 89.9% | 71.8% | 125% | 89.2% | 252% | 117% | 163% | 48.7% | 150% | 98.6% | 86.5% | 272% | 88.3% | 158% | 89.9% | 87.8%
2 | O=C(/C=C/c1cccnc1)NCCCCC1CCN(C(=O)c2ccccc2)CC1 + Cn1c(=O)n(-c2ccc(C(C)(C)C#N)cc2)c2c3cc(-c4cnc5ccccc5c4)ccc3ncc21 [NVP-BEZ235] (first compound 0.01 µM, partner dose 0.004 µM) | 1590% | 355% | 354% | 169% | 4730% | 334% | 209% | 155% | 221% | 158% | 905% | 40.2% | 62.2% | 296% | 357% | 1060% | 219% | 35.1%
3 | N#CC[C@H](C1CCCC1)n1cc(-c2ncnc3[nH]ccc23)cn1 [ruxolitinib] + COc1cc([C@@H]2c3cc4c(cc3[C@@H](O[C@@H]3O[C@@H]5CO[C@@H](C)O[C@H]5[C@H](O)[C@H]3O)[C@H]3COC(=O)[C@H]23)OCO4)cc(OC)c1O [etoposide] (first compound 1 µM, partner dose 0.02 µM) | 102% | 86.4% | 61.5% | 86% | 105% | 44.5% | 106% | 154% | 33.5% | 64.7% | 48.5% | 80.1% | 98.3% | 56.7% | 74.9% | 232% | 77.9% | 61.3%
4 | O=c1[nH]nc(Sc2ncc([N+](=O)[O-])s2)n1-c1ccc2c(c1)OCCO2 + CCN(CC)CCNC(=O)c1c(C)[nH]c(/C=C2\C(=O)Nc3ccc(F)cc32)c1C [sunitinib] (first compound 0.2 µM, partner dose 0.4 µM) | 61.8% | 89.6% | 228% | 104% | 50.9% | 86% | 305% | 109% | 63% | 202% | 60.1% | 51.2% | 204% | 46.4% | 75.1% | 29.5% | 80.4% | 82%
5 | Cc1cc(Nc2cc(N3CCN(C)CC3)nc(Sc3ccc(NC(=O)C4CC4)cc3)n2)n[nH]1 [Tozasertib] + COc1ccc(Cl)c(Nc2nc3ccccc3nc2NS(=O)(=O)c2cccc(NC(=O)C(C)(C)N)c2)c1 [XL147] (first compound 0.006 µM, partner dose 0.8 µM) | 75% | 53.2% | 165% | 210% | 74.6% | 90.7% | 91.9% | 142% | 159% | 112% | 92.2% | 173% | 48.9% | 38.8% | 84.3% | 91.5% | 117% | 213%
6 | Cc1cc(Nc2cc(N3CCN(C)CC3)nc(Sc3ccc(NC(=O)C4CC4)cc3)n2)n[nH]1 [Tozasertib] + O=c1[nH]nc(Sc2ncc([N+](=O)[O-])s2)n1-c1ccc2c(c1)OCCO2 [BI78D3] (first compound 0.006 µM, partner dose 0.2 µM) | 59% | 148% | 90.3% | 57.4% | 200% | 240% | 31.7% | 91.4% | 215% | 45.8% | 123% | 60.6% | 139% | 129% | 80% | 83.9% | 70.4% | 140%
7 | Cc1cc(Nc2cc(N3CCN(C)CC3)nc(Sc3ccc(NC(=O)C4CC4)cc3)n2)n[nH]1 [Tozasertib] + C[C@@H](N)c1ccc(C(=O)Nc2ccnc3[nH]ccc23)cc1 [RKI983] (first compound 0.006 µM, partner dose 0.4 µM) | 207% | 145% | 83.1% | 154% | 111% | 81.8% | 122% | 18.7% | 120% | 71.5% | 140% | 148% | 118% | 143% | 160% | 34.1% | 52.7% | 70.5%
8 | COc1cc([C@@H]2c3cc4c(cc3[C@@H](O[C@@H]3O[C@@H]5CO[C@@H](C)O[C@H]5[C@H](O)[C@H]3O)[C@H]3COC(=O)[C@H]23)OCO4)cc(OC)c1O [etoposide] + O=c1[nH]nc(Sc2ncc([N+](=O)[O-])s2)n1-c1ccc2c(c1)OCCO2 [BI78D3] (first compound 0.02 µM, partner dose 0.2 µM) | 122% | 171% | 143% | 120% | 80% | 131% | 61% | 133% | 128% | 44.5% | 104% | 71.4% | 164% | 45.7% | 200% | 156% | 67.8% | 126%
9 | Cc1cc(Nc2cc(N3CCN(C)CC3)nc(Sc3ccc(NC(=O)C4CC4)cc3)n2)n[nH]1 [Tozasertib] + Cn1nnc2c(C(N)=O)ncn2c1=O [temozolomide] (first compound 0.006 µM, partner dose 2 µM) | 98.4% | 87.2% | 323% | 78.7% | 127% | 121% | 73.5% | 66.9% | 289% | 50.4% | 35.3% | 92.4% | 72.7% | 95.9% | 107% | 46.2% | 38.3% | 99.7%
10 | COc1cc([C@@H]2c3cc4c(cc3[C@@H](O[C@@H]3O[C@@H]5CO[C@@H](C)O[C@H]5[C@H](O)[C@H]3O)[C@H]3COC(=O)[C@H]23)OCO4)cc(OC)c1O [etoposide] + COCC[n+]1c2c(n(Cc3cnccn3)c1C)C(=O)c1ccccc1C2=O [YM155] (first compound 0.02 µM, partner dose 0.0004 µM) | 104% | 214% | 76.9% | 31.8% | 77.4% | 44.5% | 61% | 49.9% | 99.7% | 169% | 182% | 37% | 64.3% | 89.7% | 84.5% | 80.8% | 101% | 221%
11 | O=c1[nH]nc(Sc2ncc([N+](=O)[O-])s2)n1-c1ccc2c(c1)OCCO2 + Cn1c(=O)n(-c2ccc(C(C)(C)C#N)cc2)c2c3cc(-c4cnc5ccccc5c4)ccc3ncc21 [NVP-BEZ235] (first compound 0.2 µM, partner dose 0.004 µM) | 133% | 85% | 393% | 92.5% | 138% | 56.7% | 135% | 62.3% | 84.4% | 41.5% | 59.3% | 72.5% | 105% | 65.5% | 232% | 67.5% | 138% | 55.7%
12 | Cc1ccc(Nc2nccc(N(C)c3ccc4c(C)n(C)nc4c3)n2)cc1S(N)(=O)=O [Pazopanib] + NC(=O)c1ccc(N(C(N)=O)c2c(F)cccc2F)nc1-c1ccc(F)cc1F [VX702] (first compound 0.4 µM, partner dose 0.4 µM) | 63.4% | 105% | 123% | 68.5% | 121% | 110% | 255% | 244% | 103% | 228% | 124% | 55.9% | 31.3% | 55.1% | 76.9% | 57.1% | 74.6% | 54.3%
13 | CCCCCCCCCCCCCCCCCCOP(=O)([O-])OC1CC[N+](C)(C)CC1 [Perifosine] + OCc1c[nH]c2ccccc12 [Indole-3-carbinol] (first compound 0.4 µM, partner dose 0.8 µM) | 63.4% | 159% | 160% | 45.7% | 88.9% | 89.4% | 187% | 114% | 120% | 188% | 102% | 67.4% | 85.5% | 186% | 215% | 89.6% | 53.9% | 53.5%
14 | CC[C@]1(O)C[C@H]2CN(CCc3c([nH]c4ccccc34)[C@@](C(=O)OC)(c3cc4c(cc3OC)N(C=O)[C@H]3[C@@](O)(C(=O)OC)[C@H](OC(C)=O)[C@]5(CC)C=CCN6CC[C@]43[C@@H]65)C2)C1 [vincristine] + CC(C)C[C@H](NC(=O)[C@H](Cc1ccccc1)NC(=O)c1cnccn1)B(O)O [Bortezomib] (first compound 0.0001 µM, partner dose 0.001 µM) | 158% | 66.5% | 89.7% | 194% | 1230% | 78.9% | 142% | 415% | 63.4% | 208% | 190% | 94.2% | 598% | 319% | 96.8% | 90.6% | 224% | 338%
15 | Cc1ccc(Nc2nccc(N(C)c3ccc4c(C)n(C)nc4c3)n2)cc1S(N)(=O)=O [Pazopanib] + CS(=O)(=O)c1ccc(C(=O)Nc2ccc(Cl)c(-c3ccccn3)c2)c(Cl)c1 [vismodegib] (first compound 0.4 µM, partner dose 1 µM) | 66.8% | 61.8% | 121% | 89.1% | 59.8% | 35.2% | 127% | 112% | 84.7% | 297% | 42.8% | 114% | 42.7% | 100% | 40.8% | 17.1% | 171% | 109%
16 | N#CC[C@H](C1CCCC1)n1cc(-c2ncnc3[nH]ccc23)cn1 [ruxolitinib] + CS(=O)(=O)CCNCc1ccc(-c2ccc3ncnc(Nc4ccc(OCc5cccc(F)c5)c(Cl)c4)c3c2)o1 [lapatinib] (first compound 1 µM, partner dose 0.8 µM) | 67.5% | 113% | 51.1% | 107% | 90.1% | 43.3% | 61.9% | 41.5% | 52.8% | 303% | 56.4% | 148% | 52.4% | 84.3% | 152% | 172% | 51.6% | –
17 | CCCCCCCCCCCCCCCCCCOP(=O)([O-])OC1CC[N+](C)(C)CC1 [Perifosine] + Nc1ncn([C@H]2C[C@H](O)[C@@H](CO)O2)c(=O)n1 [decitabine] (first compound 0.4 µM, partner dose 0.1 µM) | 61.8% | 31.3% | 92.3% | 84.5% | 117% | 40.5% | 80.2% | 113% | 87.8% | 88.4% | 128% | 114% | 64.4% | 66.1% | 71.9% | 78.3% | 143% | 73.5%

Random excerpt: 2 records from the list
Row | SMILES | cleaved PARP positive nuclei fraction (CBRC034) | cleaved PARP positive nuclei fraction (COLO792) | cleaved PARP positive nuclei fraction (COLO800) | cleaved PARP positive nuclei fraction (COLO829) | cleaved PARP positive nuclei fraction (G361) | cleaved PARP positive nuclei fraction (IPC-298) | cleaved PARP positive nuclei fraction (IST-MEL1) | cleaved PARP positive nuclei fraction (LB2518-MEL) | cleaved PARP positive nuclei fraction (LOXIMVI) | cleaved PARP positive nuclei fraction (MEL-HO) | cleaved PARP positive nuclei fraction (MZ2-MEL) | cleaved PARP positive nuclei fraction (MeWo) | cleaved PARP positive nuclei fraction (RPMI7951) | cleaved PARP positive nuclei fraction (RVH-421) | cleaved PARP positive nuclei fraction (SkMel28) | cleaved PARP positive nuclei fraction (SkMel2) | cleaved PARP positive nuclei fraction (SkMel30) | cleaved PARP positive nuclei fraction (UACC62)
4 | O=c1[nH]nc(Sc2ncc([N+](=O)[O-])s2)n1-c1ccc2c(c1)OCCO2 + CCN(CC)CCNC(=O)c1c(C)[nH]c(/C=C2\C(=O)Nc3ccc(F)cc32)c1C [sunitinib] (first compound 0.2 µM, partner dose 0.4 µM) | 61.8% | 89.6% | 228% | 104% | 50.9% | 86% | 305% | 109% | 63% | 202% | 60.1% | 51.2% | 204% | 46.4% | 75.1% | 29.5% | 80.4% | 82%
15 | Cc1ccc(Nc2nccc(N(C)c3ccc4c(C)n(C)nc4c3)n2)cc1S(N)(=O)=O [Pazopanib] + CS(=O)(=O)c1ccc(C(=O)Nc2ccc(Cl)c(-c3ccccn3)c2)c(Cl)c1 [vismodegib] (first compound 0.4 µM, partner dose 1 µM) | 66.8% | 61.8% | 121% | 89.1% | 59.8% | 35.2% | 127% | 112% | 84.7% | 297% | 42.8% | 114% | 42.7% | 100% | 40.8% | 17.1% | 171% | 109%
